Reference: PubChem BioAssay AID186 (DTP/NCI, 2004)
Shown are survivors of the treated group in tumour-free mice. Survivors were counted at the toxicity check, usually on the fifth day, unless a day is given; later deaths do not show. Schedule codes are those of the source, read here as Q, the interval in days (D) or hours (H), X, the number of doses. Some entries were tested several times; their values stand side by side, smallest first.

Test system: B6D2F1 mice, nontumored toxicity test, survival
Test: NCI In Vivo Anticancer Drug Screen. Data for tumor model Nontumored Animals (Toxicity Test) in B6D2F1 (BDF1) mice

O=c1[nH]cc(F)c(=O)[nH]1
survivor count (dose: 50.0 mg/kg/injection, schedule: Q04DX003 (ip), vehicle: saline): 8 of 8
survivor count (dose: 50.0 mg/kg/injection, schedule: Q04DX005 (ip), vehicle: saline): 8 of 8
survivor count (dose: 53.7 mg/kg/injection, schedule: Q01DX005 (sc), vehicle: other): 6 of 6
survivor count (dose: 53.7 mg/kg/injection, schedule: Q04DX002 (sc), vehicle: other): 6 of 6
survivor count (dose: 55.0 mg/kg/injection, schedule: Q01DX004 (other), vehicle: saline): 6 of 6
survivor count (dose: 55.0 mg/kg/injection, schedule: Q01DX006 (other), vehicle: saline): 6 of 6
survivor count (dose: 55.0 mg/kg/injection, schedule: Q01DX008 (other), vehicle: saline): 6 of 6
survivor count (dose: 55.0 mg/kg/injection, schedule: Q01DX012 (other), vehicle: saline): 6 of 6
survivor count (dose: 55.0 mg/kg/injection, schedule: Q01DX016 (other), vehicle: saline): 6 of 6
survivor count (dose: 64.0 mg/kg/injection, schedule: Q04DX003 (ip), vehicle: water): 6 of 6
survivor count (dose: 67.1 mg/kg/injection, schedule: Q01DX002 (sc), vehicle: other): 6 of 6
survivor count (dose: 67.1 mg/kg/injection, schedule: Q01DX005 (sc), vehicle: other): 6 of 6
survivor count (dose: 67.1 mg/kg/injection, schedule: Q04DX002 (sc), vehicle: other): 6 of 6
survivor count (dose: 68.7 mg/kg/injection, schedule: Q01DX004 (other), vehicle: saline): 6 of 6
survivor count (dose: 68.7 mg/kg/injection, schedule: Q01DX006 (other), vehicle: saline): 6 of 6
survivor count (dose: 68.7 mg/kg/injection, schedule: Q01DX008 (other), vehicle: saline): 6 of 6
survivor count (dose: 68.7 mg/kg/injection, schedule: Q01DX012 (other), vehicle: saline): 6 of 6
survivor count (dose: 83.9 mg/kg/injection, schedule: Q01DX002 (sc), vehicle: other): 6 of 6
survivor count (dose: 83.9 mg/kg/injection, schedule: Q04DX002 (sc), vehicle: other): 6 of 6
survivor count (dose: 85.9 mg/kg/injection, schedule: Q01DX004 (other), vehicle: saline): 6 of 6
survivor count (dose: 85.9 mg/kg/injection, schedule: Q01DX006 (other), vehicle: saline): 6 of 6
survivor count (dose: 85.9 mg/kg/injection, schedule: Q01DX008 (other), vehicle: saline): 6 of 6
survivor count (dose: 100.0 mg/kg/injection, schedule: Q01DX001 (ip), vehicle: saline): 8 of 8
survivor count (dose: 100.0 mg/kg/injection, schedule: Q04DX003 (ip), vehicle: saline): 8 of 8
survivor count (dose: 100.0 mg/kg/injection, schedule: Q04DX005 (ip), vehicle: saline): 8 of 8
survivor count (dose: 105.0 mg/kg/injection, schedule: Q01DX002 (sc), vehicle: other): 6 of 6
survivor count (dose: 105.0 mg/kg/injection, schedule: Q04DX002 (sc), vehicle: other): 6 of 6
survivor count (dose: 107.0 mg/kg/injection, schedule: Q01DX002 (other), vehicle: saline): 6 of 6
survivor count (dose: 107.0 mg/kg/injection, schedule: Q01DX004 (other), vehicle: saline): 6 of 6
survivor count (dose: 107.0 mg/kg/injection, schedule: Q01DX006 (other), vehicle: saline): 6 of 6
survivor count (dose: 107.0 mg/kg/injection, schedule: Q01DX008 (other), vehicle: saline): 6 of 6
survivor count (dose: 128.0 mg/kg/injection, schedule: Q04DX003 (ip), vehicle: water): 6 of 6
survivor count (dose: 131.0 mg/kg/injection, schedule: Q01DX002 (sc), vehicle: other): 6 of 6
survivor count (dose: 131.0 mg/kg/injection, schedule: Q04DX002 (sc), vehicle: other): 6 of 6
survivor count (dose: 131.0 mg/kg/injection, schedule: Q10DX002 (sc), vehicle: other): 6 of 6
survivor count (dose: 134.0 mg/kg/injection, schedule: Q01DX002 (other), vehicle: saline): 6 of 6
survivor count (dose: 134.0 mg/kg/injection, schedule: Q01DX004 (other), vehicle: saline): 6 of 6
survivor count (dose: 134.0 mg/kg/injection, schedule: Q01DX006 (other), vehicle: saline): 6 of 6
survivor count (dose: 150.0 mg/kg/injection, schedule: Q01DX001 (ip), vehicle: saline): 10 of 10
survivor count (dose: 164.0 mg/kg/injection, schedule: Q01DX001 (sc), vehicle: other): 6 of 6
survivor count (dose: 164.0 mg/kg/injection, schedule: Q01DX002 (sc), vehicle: other): 6 of 6
survivor count (dose: 164.0 mg/kg/injection, schedule: Q10DX002 (sc), vehicle: other): 6 of 6
survivor count (dose: 168.0 mg/kg/injection, schedule: Q01DX001 (other), vehicle: saline): 6 of 6
survivor count (dose: 168.0 mg/kg/injection, schedule: Q01DX002 (other), vehicle: saline): 6 of 6
survivor count (dose: 168.0 mg/kg/injection, schedule: Q01DX004 (other), vehicle: saline): 6 of 6
survivor count (dose: 168.0 mg/kg/injection, schedule: Q01DX006 (other), vehicle: saline): 6 of 6
survivor count (dose: 175.0 mg/kg/injection, schedule: Q01DX001 (ip), vehicle: saline): 10 of 10
survivor count (dose: 200.0 mg/kg/injection, schedule: Q01DX001 (ip), vehicle: saline): 10 of 10 and 8 of 8
survivor count (dose: 200.0 mg/kg/injection, schedule: Q04DX003 (ip), vehicle: saline): 8 of 8
survivor count (dose: 205.0 mg/kg/injection, schedule: Q01DX001 (sc), vehicle: other): 6 of 6
survivor count (dose: 205.0 mg/kg/injection, schedule: Q10DX002 (sc), vehicle: other): 6 of 6
survivor count (dose: 210.0 mg/kg/injection, schedule: Q01DX001 (other), vehicle: saline): 6 of 6
survivor count (dose: 210.0 mg/kg/injection, schedule: Q01DX002 (other), vehicle: saline): 6 of 6
survivor count (dose: 210.0 mg/kg/injection, schedule: Q01DX004 (other), vehicle: saline): 6 of 6
survivor count (dose: 225.0 mg/kg/injection, schedule: Q01DX001 (ip), vehicle: saline): 10 of 10
survivor count (dose: 256.0 mg/kg/injection, schedule: Q01DX001 (sc), vehicle: other): 6 of 6
survivor count (dose: 256.0 mg/kg/injection, schedule: Q10DX002 (sc), vehicle: other): 6 of 6
survivor count (dose: 262.0 mg/kg/injection, schedule: Q01DX001 (other), vehicle: saline): 6 of 6
survivor count (dose: 262.0 mg/kg/injection, schedule: Q01DX002 (other), vehicle: saline): 6 of 6
survivor count (dose: 262.0 mg/kg/injection, schedule: Q01DX004 (other), vehicle: saline): 6 of 6
survivor count (dose: 320.0 mg/kg/injection, schedule: Q01DX001 (sc), vehicle: other): 6 of 6
survivor count (dose: 320.0 mg/kg/injection, schedule: Q10DX002 (sc), vehicle: other): 6 of 6
survivor count (dose: 328.0 mg/kg/injection, schedule: Q01DX001 (other), vehicle: saline): 6 of 6
survivor count (dose: 328.0 mg/kg/injection, schedule: Q01DX002 (other), vehicle: saline): 6 of 6
survivor count (dose: 400.0 mg/kg/injection, schedule: Q01DX001 (ip), vehicle: saline): 8 of 8
survivor count (dose: 400.0 mg/kg/injection, schedule: Q01DX001 (sc), vehicle: other): 6 of 6
survivor count (dose: 410.0 mg/kg/injection, schedule: Q01DX001 (other), vehicle: saline): 6 of 6
survivor count (dose: 410.0 mg/kg/injection, schedule: Q01DX002 (other), vehicle: saline): 6 of 6
survivor count (dose: 512.0 mg/kg/injection, schedule: Q01DX001 (other), vehicle: saline): 6 of 6
survivor count (dose: 512.0 mg/kg/injection, schedule: Q01DX002 (other), vehicle: saline): 6 of 6
survivor count (dose: 640.0 mg/kg/injection, schedule: Q01DX001 (other), vehicle: saline): 6 of 6
survivor count (dose: 800.0 mg/kg/injection, schedule: Q01DX001 (other), vehicle: saline): 6 of 6
